The other results are listed elsewhere or left out.
What was measured:
Assay in all cases: log2 fold change, soluble protein after heating vs DMSO (PISA); higher = thermal stabilisation; K562 cells, 10 uM, 30 min; active = over 0.2 and 3.5 SD of the protein, either way, in both replicates (recomputed)
[1] = compound: COC1=CC=C(C=C1)CN2C=CC3=C2C=C(C=C3)C(=O)NO
Method in brief: (§1)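 Values are thermal stability changes relative to control samples and are taken from duplicates. They are stated as log2 fold changes. Before quantification by TMTpro 16plex LC-MS/MS with equalised channel sums, K562 cells at 2×10^6 cells/mL were treated with 10 μM compound for 30 min, heated in aliquots for 3 min across 48°C-58°C, pooled, extracted in PBS with 0.5% NP-40 at 4°C, and centrifuged at 21,000xg for 90 min to give the soluble supernatant.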

Chains of the proteins cited; added tags and fusions are not shown. Lines headed by an entry give the natural chain unless they say otherwise; changes in a name come on top.
UniProt Q16543: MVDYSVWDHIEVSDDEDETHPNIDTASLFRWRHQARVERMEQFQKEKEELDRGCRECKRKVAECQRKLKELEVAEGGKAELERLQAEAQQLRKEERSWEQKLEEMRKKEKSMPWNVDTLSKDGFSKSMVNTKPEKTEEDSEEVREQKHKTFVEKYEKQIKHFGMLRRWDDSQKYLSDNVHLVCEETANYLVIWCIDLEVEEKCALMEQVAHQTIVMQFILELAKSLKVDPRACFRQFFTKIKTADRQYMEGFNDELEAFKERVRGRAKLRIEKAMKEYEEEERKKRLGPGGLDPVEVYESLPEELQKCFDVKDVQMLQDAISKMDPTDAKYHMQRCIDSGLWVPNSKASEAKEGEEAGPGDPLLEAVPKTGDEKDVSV
UniProt P04040: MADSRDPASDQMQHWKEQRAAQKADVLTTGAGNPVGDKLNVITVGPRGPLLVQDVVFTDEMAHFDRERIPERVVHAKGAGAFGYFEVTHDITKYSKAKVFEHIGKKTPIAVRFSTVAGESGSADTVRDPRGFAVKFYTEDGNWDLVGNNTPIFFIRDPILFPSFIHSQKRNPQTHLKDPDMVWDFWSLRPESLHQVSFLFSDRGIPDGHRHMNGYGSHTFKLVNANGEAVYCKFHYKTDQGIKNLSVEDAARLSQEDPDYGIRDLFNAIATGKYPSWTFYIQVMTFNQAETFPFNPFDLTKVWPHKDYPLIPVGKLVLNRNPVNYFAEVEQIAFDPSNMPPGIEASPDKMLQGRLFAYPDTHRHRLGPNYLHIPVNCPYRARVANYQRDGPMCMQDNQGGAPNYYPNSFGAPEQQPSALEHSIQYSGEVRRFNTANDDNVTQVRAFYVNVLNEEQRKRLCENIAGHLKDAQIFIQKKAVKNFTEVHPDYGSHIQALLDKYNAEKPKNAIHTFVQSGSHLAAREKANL
UniProt P30260, whole entry, looked up: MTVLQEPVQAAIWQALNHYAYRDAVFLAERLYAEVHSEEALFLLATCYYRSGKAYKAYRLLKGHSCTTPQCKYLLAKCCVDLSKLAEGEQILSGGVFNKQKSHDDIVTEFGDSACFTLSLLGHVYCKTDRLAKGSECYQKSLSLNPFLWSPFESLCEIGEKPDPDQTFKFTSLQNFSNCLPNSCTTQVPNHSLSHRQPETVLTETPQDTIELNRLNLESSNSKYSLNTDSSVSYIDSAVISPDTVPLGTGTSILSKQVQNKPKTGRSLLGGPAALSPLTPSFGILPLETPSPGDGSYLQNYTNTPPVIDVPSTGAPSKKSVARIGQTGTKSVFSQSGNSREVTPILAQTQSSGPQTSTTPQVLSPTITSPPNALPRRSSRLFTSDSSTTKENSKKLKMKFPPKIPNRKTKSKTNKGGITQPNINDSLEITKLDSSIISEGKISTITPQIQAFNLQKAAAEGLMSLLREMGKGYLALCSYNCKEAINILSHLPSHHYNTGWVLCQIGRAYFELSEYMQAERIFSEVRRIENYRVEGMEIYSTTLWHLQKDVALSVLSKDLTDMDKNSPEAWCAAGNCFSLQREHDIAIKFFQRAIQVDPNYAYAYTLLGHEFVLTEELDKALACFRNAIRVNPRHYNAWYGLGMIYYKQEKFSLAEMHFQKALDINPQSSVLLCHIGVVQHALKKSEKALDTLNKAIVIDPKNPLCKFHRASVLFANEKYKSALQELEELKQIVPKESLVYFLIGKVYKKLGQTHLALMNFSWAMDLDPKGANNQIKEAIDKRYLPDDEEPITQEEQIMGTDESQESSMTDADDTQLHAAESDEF
UniProt Q86X55: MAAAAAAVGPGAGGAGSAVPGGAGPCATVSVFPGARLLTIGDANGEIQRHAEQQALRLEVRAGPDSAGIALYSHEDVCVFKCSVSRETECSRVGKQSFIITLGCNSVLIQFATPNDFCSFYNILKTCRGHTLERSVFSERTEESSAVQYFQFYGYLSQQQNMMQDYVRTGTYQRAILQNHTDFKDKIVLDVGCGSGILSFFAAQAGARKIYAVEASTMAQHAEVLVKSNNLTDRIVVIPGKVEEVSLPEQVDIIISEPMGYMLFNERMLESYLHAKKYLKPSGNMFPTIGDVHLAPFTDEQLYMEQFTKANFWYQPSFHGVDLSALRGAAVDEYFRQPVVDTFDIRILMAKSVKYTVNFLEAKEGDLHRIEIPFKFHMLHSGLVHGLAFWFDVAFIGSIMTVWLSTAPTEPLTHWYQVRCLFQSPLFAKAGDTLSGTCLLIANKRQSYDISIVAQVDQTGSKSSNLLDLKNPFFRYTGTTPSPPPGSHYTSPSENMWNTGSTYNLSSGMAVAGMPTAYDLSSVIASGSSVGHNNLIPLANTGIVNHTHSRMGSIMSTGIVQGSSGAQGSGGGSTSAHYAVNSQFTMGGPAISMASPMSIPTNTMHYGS
UniProt Q96ER9: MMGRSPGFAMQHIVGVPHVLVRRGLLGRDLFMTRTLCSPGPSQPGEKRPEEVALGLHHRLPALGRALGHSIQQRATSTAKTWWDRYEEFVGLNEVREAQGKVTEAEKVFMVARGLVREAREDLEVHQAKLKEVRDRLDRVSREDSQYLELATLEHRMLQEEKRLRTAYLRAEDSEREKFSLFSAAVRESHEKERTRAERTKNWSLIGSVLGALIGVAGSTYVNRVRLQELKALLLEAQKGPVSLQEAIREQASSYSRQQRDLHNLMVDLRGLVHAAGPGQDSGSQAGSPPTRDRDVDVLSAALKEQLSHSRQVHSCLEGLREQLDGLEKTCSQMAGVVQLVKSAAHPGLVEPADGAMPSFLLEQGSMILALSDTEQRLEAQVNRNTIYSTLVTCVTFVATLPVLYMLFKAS
UniProt P49427: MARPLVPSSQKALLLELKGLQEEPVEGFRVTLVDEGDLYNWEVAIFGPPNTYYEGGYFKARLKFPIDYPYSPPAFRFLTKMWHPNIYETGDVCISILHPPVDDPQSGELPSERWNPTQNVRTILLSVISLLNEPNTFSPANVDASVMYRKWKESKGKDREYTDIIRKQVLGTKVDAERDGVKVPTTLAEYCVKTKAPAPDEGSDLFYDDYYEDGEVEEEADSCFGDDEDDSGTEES
UniProt Q9ULG6: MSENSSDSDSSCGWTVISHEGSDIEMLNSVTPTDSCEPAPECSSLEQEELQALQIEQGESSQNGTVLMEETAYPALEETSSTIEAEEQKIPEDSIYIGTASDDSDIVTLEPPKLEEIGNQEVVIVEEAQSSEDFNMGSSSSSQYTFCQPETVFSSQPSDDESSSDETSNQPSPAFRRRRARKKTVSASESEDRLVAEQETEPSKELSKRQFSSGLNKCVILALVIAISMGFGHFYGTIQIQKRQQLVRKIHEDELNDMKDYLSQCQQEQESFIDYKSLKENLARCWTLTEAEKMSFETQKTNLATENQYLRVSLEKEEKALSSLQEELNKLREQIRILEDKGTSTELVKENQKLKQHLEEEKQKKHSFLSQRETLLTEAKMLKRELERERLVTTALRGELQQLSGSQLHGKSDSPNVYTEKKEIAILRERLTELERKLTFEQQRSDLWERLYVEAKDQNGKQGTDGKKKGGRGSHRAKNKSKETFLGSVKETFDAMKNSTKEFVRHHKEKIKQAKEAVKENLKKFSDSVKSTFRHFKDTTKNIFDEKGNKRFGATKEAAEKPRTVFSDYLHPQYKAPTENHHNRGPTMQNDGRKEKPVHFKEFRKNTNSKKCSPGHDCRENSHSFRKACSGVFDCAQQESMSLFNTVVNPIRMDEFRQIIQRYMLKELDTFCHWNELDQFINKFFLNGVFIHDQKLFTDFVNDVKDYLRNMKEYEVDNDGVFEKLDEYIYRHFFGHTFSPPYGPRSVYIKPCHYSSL
UniProt P60953, whole entry, looked up: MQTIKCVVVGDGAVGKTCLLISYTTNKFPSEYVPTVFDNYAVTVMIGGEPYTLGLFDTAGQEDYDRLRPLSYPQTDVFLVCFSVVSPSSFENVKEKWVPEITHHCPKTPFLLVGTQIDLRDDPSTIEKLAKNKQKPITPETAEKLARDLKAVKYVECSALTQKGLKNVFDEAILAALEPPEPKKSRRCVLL
UniProt Q13191, whole entry, looked up: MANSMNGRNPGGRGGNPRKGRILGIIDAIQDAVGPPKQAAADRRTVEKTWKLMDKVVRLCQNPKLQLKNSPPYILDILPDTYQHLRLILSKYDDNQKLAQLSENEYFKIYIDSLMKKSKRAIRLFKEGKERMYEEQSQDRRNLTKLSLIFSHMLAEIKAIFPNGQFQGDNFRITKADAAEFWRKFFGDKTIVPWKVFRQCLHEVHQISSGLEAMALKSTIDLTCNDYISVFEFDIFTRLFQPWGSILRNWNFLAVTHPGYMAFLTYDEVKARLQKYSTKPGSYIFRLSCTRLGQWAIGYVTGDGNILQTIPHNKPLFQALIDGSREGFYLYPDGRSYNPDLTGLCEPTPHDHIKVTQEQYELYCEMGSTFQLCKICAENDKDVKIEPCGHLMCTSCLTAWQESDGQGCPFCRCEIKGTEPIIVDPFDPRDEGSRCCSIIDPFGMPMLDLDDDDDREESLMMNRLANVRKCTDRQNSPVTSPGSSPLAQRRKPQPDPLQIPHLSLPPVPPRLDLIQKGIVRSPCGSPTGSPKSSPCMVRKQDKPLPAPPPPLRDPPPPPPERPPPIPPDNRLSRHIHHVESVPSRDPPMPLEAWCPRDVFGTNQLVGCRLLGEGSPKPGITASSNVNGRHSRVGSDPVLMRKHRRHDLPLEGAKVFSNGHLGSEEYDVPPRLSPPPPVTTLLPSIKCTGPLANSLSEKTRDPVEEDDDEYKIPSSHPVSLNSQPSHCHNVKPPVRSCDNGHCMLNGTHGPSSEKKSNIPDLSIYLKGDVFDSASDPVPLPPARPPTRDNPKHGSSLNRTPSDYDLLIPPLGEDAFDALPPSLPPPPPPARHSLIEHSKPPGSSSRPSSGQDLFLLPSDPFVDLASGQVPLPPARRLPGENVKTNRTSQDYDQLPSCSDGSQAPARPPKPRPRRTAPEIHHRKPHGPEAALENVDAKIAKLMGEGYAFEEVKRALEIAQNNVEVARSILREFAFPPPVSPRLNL
UniProt O95810: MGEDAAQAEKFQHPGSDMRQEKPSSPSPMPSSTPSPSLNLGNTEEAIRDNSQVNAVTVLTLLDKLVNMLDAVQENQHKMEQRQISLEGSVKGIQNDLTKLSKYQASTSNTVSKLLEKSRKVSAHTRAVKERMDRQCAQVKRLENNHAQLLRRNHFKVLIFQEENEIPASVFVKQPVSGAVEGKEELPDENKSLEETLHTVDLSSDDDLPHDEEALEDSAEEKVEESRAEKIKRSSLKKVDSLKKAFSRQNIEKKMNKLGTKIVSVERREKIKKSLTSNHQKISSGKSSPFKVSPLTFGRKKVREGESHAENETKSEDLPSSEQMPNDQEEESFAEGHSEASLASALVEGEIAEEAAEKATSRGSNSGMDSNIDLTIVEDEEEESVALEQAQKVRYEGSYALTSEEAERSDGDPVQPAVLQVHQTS
UniProt Q9NPF0: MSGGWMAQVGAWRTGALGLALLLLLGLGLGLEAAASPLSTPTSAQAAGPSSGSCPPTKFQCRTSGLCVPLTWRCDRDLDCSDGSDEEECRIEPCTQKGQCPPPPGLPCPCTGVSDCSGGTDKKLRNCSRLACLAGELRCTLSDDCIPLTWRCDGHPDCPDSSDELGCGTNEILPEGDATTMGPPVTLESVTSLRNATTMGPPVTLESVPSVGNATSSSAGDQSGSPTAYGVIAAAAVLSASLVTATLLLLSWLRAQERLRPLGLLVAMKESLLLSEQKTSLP
UniProt P20248, whole entry, looked up: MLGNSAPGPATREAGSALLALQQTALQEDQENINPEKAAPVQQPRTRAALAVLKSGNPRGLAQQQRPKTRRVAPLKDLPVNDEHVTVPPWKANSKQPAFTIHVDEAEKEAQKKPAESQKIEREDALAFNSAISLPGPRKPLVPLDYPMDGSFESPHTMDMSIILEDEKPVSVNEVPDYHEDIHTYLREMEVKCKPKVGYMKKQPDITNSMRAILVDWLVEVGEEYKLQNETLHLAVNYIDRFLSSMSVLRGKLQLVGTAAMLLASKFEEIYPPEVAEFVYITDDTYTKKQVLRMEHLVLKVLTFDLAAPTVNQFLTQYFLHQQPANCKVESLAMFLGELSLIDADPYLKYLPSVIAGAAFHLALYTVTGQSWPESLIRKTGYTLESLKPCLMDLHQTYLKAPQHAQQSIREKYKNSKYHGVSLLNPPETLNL
UniProt P78371: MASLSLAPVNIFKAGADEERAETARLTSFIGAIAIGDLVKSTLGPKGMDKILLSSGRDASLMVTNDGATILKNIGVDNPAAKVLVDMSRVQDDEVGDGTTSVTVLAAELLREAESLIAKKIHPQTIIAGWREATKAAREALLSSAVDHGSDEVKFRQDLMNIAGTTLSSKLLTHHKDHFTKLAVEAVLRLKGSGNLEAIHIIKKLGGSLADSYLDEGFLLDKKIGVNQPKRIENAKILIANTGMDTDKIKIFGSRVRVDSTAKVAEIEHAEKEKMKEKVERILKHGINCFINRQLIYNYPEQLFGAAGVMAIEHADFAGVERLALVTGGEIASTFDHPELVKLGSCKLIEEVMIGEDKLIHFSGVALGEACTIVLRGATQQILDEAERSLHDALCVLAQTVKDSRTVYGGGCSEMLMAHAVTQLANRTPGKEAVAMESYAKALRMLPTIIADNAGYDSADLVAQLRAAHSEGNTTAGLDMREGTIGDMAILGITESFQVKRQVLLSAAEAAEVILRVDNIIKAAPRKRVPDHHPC

filanesib = compound: CON(C)C(=O)N1N=C(c2cc(F)ccc2F)S[C@@]1(CCCN)c1ccccc1 [filanesib]
Method in brief: as §1

zotarolimus = compound: CO[C@H]1C[C@@H]2CC[C@@H](C)[C@@](O)(O2)C(=O)C(=O)N2CCCC[C@H]2C(=O)O[C@H]([C@H](C)C[C@@H]2CC[C@H](n3cnnn3)[C@H](OC)C2)CC(=O)[C@H](C)/C=C(\C)[C@@H](O)[C@@H](OC)C(=O)[C@H](C)C[C@H](C)/C=C/C=C/C=C/1C [zotarolimus]
Method in brief: as §1

idasanutlin = compound: COc1cc(C(=O)O)ccc1NC(=O)[C@@H]1N[C@@H](CC(C)(C)C)[C@](C#N)(c2ccc(Cl)cc2F)[C@H]1c1cccc(Cl)c1F [idasanutlin]
Method in brief: as §1

alisertib = compound: COc1cc(Nc2ncc3c(n2)-c2ccc(Cl)cc2C(c2c(F)cccc2OC)=NC3)ccc1C(=O)O [alisertib]
Method in brief: as §1

[2] = compound: COc1cc2nc(-c3cc(F)ccc3O)nc(N[C@@H]3CNC[C@H]3C(C)(C)O)c2cc1OC
Method in brief: as §1

gefitinib = compound: COc1cc2ncnc(Nc3ccc(F)c(Cl)c3)c2cc1OCCCN1CCOCC1 [gefitinib]
Method in brief: as §1

[3] = compound: COc1cccc2cc(-c3nc([C@H]4CC[C@H](C(=O)O)CC4)n4ncnc(N)c34)[nH]c12
Method in brief: as §1

lapatinib = compound: CS(=O)(=O)CCNCc1ccc(-c2ccc3ncnc(Nc4ccc(OCc5cccc(F)c5)c(Cl)c4)c3c2)o1 [lapatinib]
Method in brief: as §1

pictilisib = compound: CS(=O)(=O)N1CCN(Cc2cc3nc(-c4cccc5[nH]ncc45)nc(N4CCOCC4)c3s2)CC1 [pictilisib]
Method in brief: as §1

[4] = compound: CS(=O)(=O)c1ccc(-c2cnc(N)c(C(=O)Nc3ccccc3)n2)cc1
Method in brief: as §1

crizotinib = compound: C[C@@H](Oc1cc(-c2cnn(C3CCNCC3)c2)cnc1N)c1c(Cl)ccc(F)c1Cl [crizotinib]
Method in brief: as §1

[5] = compound: C[C@@H]1COCCN1C2=NC(=NC(=C2)C3(CC3)S(=O)(=O)C)C4=C5C=CNC5=CC=C4
Method in brief: as §1

[6] = compound: C[C@H](C1=CC=C(C=C1)C(=O)NC2=C3C=CNC3=NC=C2)N
Method in brief: as §1

duvelisib = compound: C[C@H](Nc1ncnc2nc[nH]c12)c1cc2cccc(Cl)c2c(=O)n1-c1ccccc1 [duvelisib]
Method in brief: as §1

gandotinib = compound: Cc1cc(Nc2cc(CN3CCOCC3)c3nc(C)c(Cc4ccc(Cl)cc4F)n3n2)n[nH]1 [gandotinib]
Method in brief: as §1

tozasertib = compound: Cc1cc(Nc2cc(N3CCN(C)CC3)nc(Sc3ccc(NC(=O)C4CC4)cc3)n2)n[nH]1 [tozasertib]
Method in brief: as §1

[7] = compound: Cc1cc(SCc2sc(-c3ccc(C(F)(F)F)cc3)nc2C)ccc1OCC(=O)O
Method in brief: as §1

doramapimod = compound: Cc1ccc(-n2nc(C(C)(C)C)cc2NC(=O)Nc2ccc(OCCN3CCOCC3)c3ccccc23)cc1 [doramapimod]
Method in brief: as §1

ispinesib = compound: Cc1ccc(C(=O)N(CCCN)[C@@H](c2nc3cc(Cl)ccc3c(=O)n2Cc2ccccc2)C(C)C)cc1 [ispinesib]
Method in brief: as §1

Measured: log2 fold change

CDC37 (UniProt Q16543)
inactive: [1] 0.033 | filanesib -0.034 | zotarolimus 0.089 | idasanutlin 0.024 | alisertib -0.012 | [2] -0.002 | gefitinib -0.001 | [3] -0.027 | lapatinib -0.039 | pictilisib -0.007 | [4] 0.001 | crizotinib 0.008 | [5] 0.053 | [6] -0.099 | duvelisib 0.029 | gandotinib -0.161 | tozasertib 0.044 | [7] -0.002 | doramapimod -0.001 | ispinesib 0.058

CAT (UniProt P04040)
inactive: [1] 0.011 | filanesib -0.021 | zotarolimus -0.025 | idasanutlin 0.19 | alisertib -0.02 | [2] 0 | gefitinib -0.007 | [3] 0.062 | lapatinib -0.022 | pictilisib 0.018 | [4] 0.009 | crizotinib 0.038 | [5] -0.015 | [6] -0.041 | duvelisib 0.015 | gandotinib -0.047 | tozasertib -0.006 | [7] -0.031 | doramapimod -0.016 | ispinesib 0.053

CDC27 isoform 2 (UniProt P30260)
inactive: [1] -0.066 | filanesib 0.039 | zotarolimus 0.031 | idasanutlin 0.013 | alisertib -0.029 | [2] -0.013 | gefitinib 0.005 | [3] -0.031 | lapatinib 0.059 | pictilisib -0.015 | [4] 0.016 | crizotinib -0.017 | [5] -0.019 | [6] 0.047 | duvelisib -0.033 | gandotinib -0.002 | tozasertib 0.043 | [7] 0.056 | doramapimod 0.043 | ispinesib 0.015

CCDC22 (UniProt O60826)
inactive: [1] 0.021 | filanesib 0.004 | zotarolimus 0.091 | idasanutlin -0.006 | alisertib -0.014 | [2] 0.01 | gefitinib -0.011 | [3] -0.029 | lapatinib 0.092 | pictilisib -0.171 | [4] 0.009 | crizotinib -0.116 | [5] -0.038 | [6] 0.133 | duvelisib 0.013 | gandotinib -0.077 | tozasertib 0.052 | [7] 0.105 | doramapimod 0.023 | ispinesib -0.048

CARM1 (UniProt Q86X55)
inactive: [1] 0.002 | filanesib -0.061 | zotarolimus 0.033 | idasanutlin -0.04 | alisertib -0.024 | [2] -0.02 | gefitinib 0.014 | [3] 0.057 | lapatinib -0.011 | pictilisib 0.022 | [4] 0.01 | crizotinib 0.054 | [5] 0.041 | [6] -0.059 | duvelisib 0.049 | gandotinib -0.026 | tozasertib -0.019 | [7] 0 | doramapimod -0.044 | ispinesib -0.023

CCDC51 (UniProt Q96ER9)
inactive: [1] 0.001 | filanesib -0.128 | zotarolimus 0.033 | idasanutlin -0.061 | alisertib -0.081 | [2] -0.105 | gefitinib -0.013 | [3] 0.042 | lapatinib 0.085 | pictilisib 0.011 | [4] -0.081 | crizotinib -0.036 | [5] -0.018 | [6] -0.084 | duvelisib 0.086 | gandotinib 0 | tozasertib 0.003 | [7] 0.006 | doramapimod -0.02 | ispinesib 0.009

CDC34 (UniProt P49427)
inactive: [1] -0.268 | filanesib -0.004 | zotarolimus -0.033 | idasanutlin -0.046 | alisertib 0.042 | [2] 0.177 | gefitinib 0.041 | [3] -0.027 | lapatinib -0.081 | pictilisib 0.033 | [4] 0.007 | crizotinib -0.121 | [5] 0.117 | [6] 0.146 | duvelisib 0.067 | gandotinib -0.059 | tozasertib 0.153 | [7] 0.121 | doramapimod 0.169 | ispinesib -0.19

CBL (UniProt P22681)
inactive: [1] 0.108 | filanesib -0.051 | zotarolimus -0.01 | idasanutlin 0.007 | alisertib -0.015 | [2] 0.019 | gefitinib 0 | [3] 0.009 | lapatinib -0.004 | pictilisib 0.018 | [4] -0.015 | crizotinib 0.002 | [5] 0.053 | [6] -0.064 | duvelisib 0.138 | gandotinib -0.009 | tozasertib 0.024 | [7] -0.032 | doramapimod -0.055 | ispinesib 0.113

CCPG1 isoform 5 (UniProt Q9ULG6)
inactive: [1] -0.063 | filanesib 0.172 | zotarolimus 0.014 | idasanutlin 0.104 | alisertib -0.074 | [2] -0.028 | gefitinib -0.066 | [3] -0.199 | lapatinib 0.127 | pictilisib -0.017 | [4] 0.003 | crizotinib -0.072 | [5] -0.271 | [6] 0.249 | duvelisib -0.091 | gandotinib 0.026 | tozasertib 0.057 | [7] 0.029 | doramapimod 0.161 | ispinesib -0.012

2 records drawn at random from those above:
CCPG1 isoform 5 (UniProt Q9ULG6)
inactive: [1] -0.063 | filanesib 0.172 | zotarolimus 0.014 | idasanutlin 0.104 | alisertib -0.074 | [2] -0.028 | gefitinib -0.066 | [3] -0.199 | lapatinib 0.127 | pictilisib -0.017 | [4] 0.003 | crizotinib -0.072 | [5] -0.271 | [6] 0.249 | duvelisib -0.091 | gandotinib 0.026 | tozasertib 0.057 | [7] 0.029 | doramapimod 0.161 | ispinesib -0.012

CDC27 isoform 2 (UniProt P30260)
inactive: [1] -0.066 | filanesib 0.039 | zotarolimus 0.031 | idasanutlin 0.013 | alisertib -0.029 | [2] -0.013 | gefitinib 0.005 | [3] -0.031 | lapatinib 0.059 | pictilisib -0.015 | [4] 0.016 | crizotinib -0.017 | [5] -0.019 | [6] 0.047 | duvelisib -0.033 | gandotinib -0.002 | tozasertib 0.043 | [7] 0.056 | doramapimod 0.043 | ispinesib 0.015

The list goes on.

CDC42 (UniProt P60953)
inactive: [1] 0.282 | filanesib -0.001 | zotarolimus 0.018 | idasanutlin 0.033 | alisertib -0.083 | [2] -0.033 | gefitinib -0.001 | [3] -0.112 | lapatinib -0.018 | pictilisib 0.083 | [4] 0.025 | crizotinib 0.154 | [5] -0.072 | [6] -0.206 | duvelisib -0.062 | gandotinib 0.197 | tozasertib 0.016 | [7] 0.038 | doramapimod -0.129 | ispinesib 0.2

CBLB (UniProt Q13191)
inactive: [1] 0.006 | filanesib -0.027 | zotarolimus 0.016 | idasanutlin -0.008 | alisertib -0.136 | [2] 0.08 | gefitinib 0.035 | [3] 0.014 | lapatinib 0.014 | pictilisib -0.038 | [4] -0.021 | crizotinib -0.025 | [5] -0.039 | [6] -0.053 | duvelisib 0.055 | gandotinib 0.003 | tozasertib 0.037 | [7] -0.022 | doramapimod -0.005 | ispinesib -0.04

CAVIN2 (UniProt O95810)
inactive: [1] -0.003 | filanesib 0.063 | zotarolimus -0.015 | idasanutlin 0.109 | alisertib -0.035 | [2] -0.153 | gefitinib -0.072 | [3] -0.059 | lapatinib 0.073 | pictilisib -0.16 | [4] -0.071 | crizotinib -0.102 | [5] -0.179 | [6] 0.063 | duvelisib -0.112 | gandotinib 0.06 | tozasertib 0.059 | [7] 0.045 | doramapimod 0.095 | ispinesib -0.18

CD320 (UniProt Q9NPF0)
inactive: [1] 0.001 | filanesib -0.043 | zotarolimus 0.024 | idasanutlin 0.03 | alisertib -0.04 | [2] -0.013 | gefitinib -0.002 | [3] 0.017 | lapatinib 0.025 | pictilisib -0.006 | [4] 0.003 | crizotinib 0.046 | [5] -0.078 | [6] -0.054 | duvelisib 0.015 | gandotinib -0.046 | tozasertib -0.034 | [7] 0.016 | doramapimod -0.007 | ispinesib 0.067

CCNA2 (UniProt P20248)
inactive: [1] -0.013 | filanesib 0.009 | zotarolimus -0.008 | idasanutlin 0.016 | alisertib -0.032 | [2] -0.037 | gefitinib -0.002 | [3] 0.026 | lapatinib 0.04 | pictilisib -0.024 | [4] -0.011 | crizotinib -0.033 | [5] -0.058 | [6] -0.065 | duvelisib 0 | gandotinib 0.002 | tozasertib -0.027 | [7] 0.01 | doramapimod 0.017 | ispinesib 0.043

CCT2 (UniProt P78371)
inactive: [1] 0.044 | filanesib -0.038 | zotarolimus 0.01 | idasanutlin -0.006 | alisertib -0.033 | [2] -0.014 | gefitinib -0.022 | [3] 0.024 | lapatinib 0.005 | pictilisib -0.041 | [4] -0.025 | crizotinib -0.008 | [5] 0.011 | [6] -0.038 | duvelisib 0.009 | gandotinib -0.029 | tozasertib 0.007 | [7] 0.016 | doramapimod -0.006 | ispinesib 0.005

CARS isoform 3 (UniProt P49589)
inactive: [1] 0.001 | filanesib -0.042 | zotarolimus -0.015 | idasanutlin -0.032 | alisertib -0.044 | [2] 0 | gefitinib -0.004 | [3] 0.027 | lapatinib 0.012 | pictilisib -0.029 | [4] 0.007 | crizotinib -0.021 | [5] 0.02 | [6] -0.021 | duvelisib -0.014 | gandotinib -0.104 | tozasertib -0.019 | [7] -0.021 | doramapimod -0.011 | ispinesib -0.029

Reference: the supplement of paper PMC10849652
